# Assay results taken from PubChem BioAssay AID1347076 (National Center for Advancing Translational Sciences (NCATS), 2019).
# Among all 400,000 compounds or so, about 13,000 (3.2%) were called active. The shares of active, inactive and inconclusive entries below differ from those in the screen. Calls come from the whole dose curve; as a rule, active = well fitted cell-killing curve with a large enough effect; inconclusive = small, poorly fitted or top-dose-only effect, or effect the other way; inactive = flat fitted curve, though single readings scatter. Potencies beside an inconclusive call are fits to weak or partial responses and may not hold up.
# Test: qHTS assay for MDR1-selective chemotherapeutics: Primary screen using the drug-selected MDR subline cells KB-V1; note: nearly all actives have a fitted effect of over 60% in size
# Conditions: KB-V1 MDR cells viability, CellTiter-Glo, 72 h; activity change, negative = cytotoxicity: at 46.1 µM (top of the series)
# How it was run: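 KB-V1, DMEM (no phenol red) + 10% FBS; cpd pin-transferred, titration series; 72 h, 37 degrees C; CellTiter-Glo, luminescence. Data normalized, curve-fit.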
# % is set by controls: 0 for no effect and ±100 for the full control effect; potency is the fitted concentration of half-maximal effect.
Structure (SMILES),Potency,"activity change, negative = cytotoxicity"
COc1ccc(CCNS(=O)(=O)c2ccc(Br)cc2)cc1OC,inactive,
CCOC(=O)c1c(NC(=O)COc2ccc(Br)cc2)sc2c1CCCC2,inactive,
Cc1cc(C)c(C)c(S(=O)(=O)N(C)CCc2ccccn2)c1C,inactive,
O=C(NCCN1C(=O)S/C(=C\c2ccc(Cl)cc2Cl)C1=O)C1=COCCO1,"inconclusive: 20.6 µM [cytotoxic, single point]",
C=CCn1c(=N)c(C(=O)NCCCOC)cc2c(=O)n3cc(C)ccc3nc21,"inconclusive: 18.4 µM [cytotoxic, single point]",
COC(=O)C1=C(C)N(C)C(=O)NC1c1c(O)ccc2ccccc12 (stereo unspecified),inactive,
Cc1cc(C(=O)NCc2ccccc2Cl)c2ccccc2n1,"inconclusive: 16.4 µM [cytotoxic, single point]",
COCCCn1c(=N)c(C(=O)NCc2ccco2)cc2c(=O)n3cccc(C)c3nc21,"inconclusive: 4.61 µM [rising, full curve, poor fit]",
O=C(CSc1nnc(NC2CCCCC2)s1)Nc1ccc(N2CCOCC2)cc1,active: 5.8 µM,
Clc1ccc(Nc2ccc(-n3ccnc3)nn2)cc1Cl,"inconclusive: 29.1 µM [cytotoxic, single point]",
CCOC(=O)c1c(NC(=O)CSc2nnc(CNC(=O)c3ccco3)n2C)sc2c1CCC2,active: 20.6 µM,
OC(c1ccc(F)cc1)c1ncc(-c2cccc(C(F)(F)F)c2)[nH]1 (stereo unspecified),inactive,
COC(=O)[C@]12CCCCC=C1N(CCc1ccc(OC)c(OC)c1)C(=O)[C@H](CC(=O)NCC1CCCCC1)C2,"inconclusive: 18.4 µM [cytotoxic, partial curve, poor fit]",
CCc1ccc(S(=O)(=O)c2nnn3c2nc(Nc2ccc(C)c(Cl)c2)c2sccc23)cc1,inactive,
CC(=O)Nc1ccc(C(=O)NNC(=O)c2cccs2)cc1,"inconclusive: 29.1 µM [rising, single point]",
Fc1cccc(Cl)c1CNn1cn[nH]c1=S,,inconclusive: 23.9%
COc1cc(C(=O)NNC(=O)c2cc(=O)[nH]c3ccccc23)cc(OC)c1OC,"inconclusive: 20.6 µM [rising, partial curve, poor fit]",
O=C(NCc1ccco1)c1[nH]c(C(F)(F)F)nc1-c1ccccc1,"inconclusive: 25.9 µM [cytotoxic, single point]",
CCc1ccc(OCCCC(=O)NCc2ccco2)cc1,inactive,
Cc1cccc(Oc2coc3cc(OC(=O)c4cccs4)ccc3c2=O)c1,inactive,
C[C@H](NS(=O)(=O)c1ccc(Cl)cc1)C(=O)OCC(=O)N1CCOCC1,"inconclusive: 29.1 µM [rising, single point]",
O=C(NC(=S)Nc1cc(C(F)(F)F)ccc1N1CCOCC1)c1ccc(-c2cccc(Cl)c2)o1,"inconclusive: 32.6 µM [cytotoxic, partial curve, poor fit]",
Cc1cccc(OCCCN2CCCCCC2)c1,inactive,

# Reprinted at random: two entries already listed, in no set order.
Structure (SMILES),Potency,"activity change, negative = cytotoxicity"
Clc1ccc(Nc2ccc(-n3ccnc3)nn2)cc1Cl,"inconclusive: 29.1 µM [cytotoxic, single point]",
Cc1cc(C)c(C)c(S(=O)(=O)N(C)CCc2ccccn2)c1C,inactive,

# More entries follow:

Structure (SMILES),Potency,"activity change, negative = cytotoxicity"
Cc1cc(C)nc(-n2ncc3c2CC(c2cccc(Cl)c2)CC3=O)n1 (stereo unspecified),"inconclusive: 18.4 µM [cytotoxic, single point]",
CC(=O)Nc1cc(C(=O)NCc2ccc(C)cc2)ccc1S(=O)(=O)c1ccc(Cl)cc1,inactive,
CCOC(=O)CN1C(C(=O)c2ccccc2)=C(OC(=O)C(C)(C)C)c2ccccc2S1(=O)=O,"inconclusive: 25.9 µM [cytotoxic, single point]",
Cc1c(C)c2cc(Cl)c(OCC(=O)N3CCN(c4ccc(F)cc4)CC3)cc2oc1=O,inactive,
O=C(Nc1ccc2c(c1)OCCO2)C1CCN(S(=O)(=O)c2ccc(Br)s2)CC1,active: 10.3 µM,
CC(C)(C)n1nnnc1C(c1cc2ccccc2o1)N1CCCC1 (stereo unspecified),"inconclusive: 18.4 µM [cytotoxic, single point]",
COc1ccc(N2CCN(Cc3cc(=O)c(OCC(=O)Nc4ccccc4)co3)CC2)cc1,inactive,
Cc1ccc(O)c(C(=O)CC(=O)c2ccc(C(C)(C)C)cc2)c1,inactive,
COC(=O)C(C(=O)OC)c1cc2c(cc1CNS(=O)(=O)c1ccc(C)cc1)OCO2,"inconclusive: 23.1 µM [cytotoxic, single point]",
CCOC(=O)c1cnc2c(c(C3CC3)nn2C)c1N1CCOCC1,,inconclusive: -42% [cytotoxic]
CC(C)(C)S(=O)(=O)c1cnc(-c2ccccn2)nc1N,"inconclusive: 11.6 µM [cytotoxic, partial curve]",
COc1ccc(Cl)cc1NC(=O)CSc1nc2ccccc2c2nc(-c3ccccc3)nn12,inactive,
Cc1ccc(-n2ncc3c(=O)n(-c4ccc(C)c(C)c4)c(C)nc32)cc1,inactive,
O=C(CSc1nnnn1C1CCCC1)N1CCCCC1,"inconclusive: 25.9 µM [cytotoxic, single point]",
Cn1c(=O)oc2cc(S(=O)(=O)Nc3cccc([N+](=O)[O-])c3)ccc21,"inconclusive: 29.1 µM [rising, partial curve, poor fit]",
C/C(=N\NC(N)=S)c1ccc(Cl)s1,active: 6.51 µM,
O=C(NCCN1C(=O)S/C(=C\c2ccccc2)C1=O)c1cc(S(=O)(=O)N2CCOCC2)c(Cl)cc1Cl,"inconclusive: 32.6 µM [cytotoxic, single point]",
Cc1ccc(C(=O)Nc2ccccc2)cc1S(=O)(=O)Nc1ccc(Br)cc1,"inconclusive: 18.4 µM [cytotoxic, single point]",
Cc1ccc(Cl)cc1NC(=S)N(Cc1cccnc1)Cc1ccccc1Cl,"inconclusive: 18.4 µM [cytotoxic, partial curve]",
FC(F)(F)c1cc(-c2ccccc2)nc(NCC2CCCO2)n1 (stereo unspecified),inactive,
O=C(CCNS(=O)(=O)c1ccccc1F)OCc1ccccc1Cl,inactive,
COc1ccc(C(=O)Nc2ccc(N3CCN(C(=O)c4ccccc4)CC3)cc2)cc1[N+](=O)[O-],"inconclusive: 16.4 µM [cytotoxic, partial curve]",
O=C(CSc1nc2ccccc2c(=O)n1-c1ccccc1Cl)Nc1cccc(S(=O)(=O)N2CCOCC2)c1,"inconclusive: 5.8 µM [cytotoxic, partial curve, poor fit]",
